Publication PMC9935735
Results are given in words; binding and its absence hold for the method and conditions named. Binding seen in cells or lysates may run through a third protein. Some results given as binding are weak or reduced against the parent protein; the word gives no strength.

The chains behind the UniProt entries cited, without tags or fusion partners. Residues count along the entry.
UniProt P35414: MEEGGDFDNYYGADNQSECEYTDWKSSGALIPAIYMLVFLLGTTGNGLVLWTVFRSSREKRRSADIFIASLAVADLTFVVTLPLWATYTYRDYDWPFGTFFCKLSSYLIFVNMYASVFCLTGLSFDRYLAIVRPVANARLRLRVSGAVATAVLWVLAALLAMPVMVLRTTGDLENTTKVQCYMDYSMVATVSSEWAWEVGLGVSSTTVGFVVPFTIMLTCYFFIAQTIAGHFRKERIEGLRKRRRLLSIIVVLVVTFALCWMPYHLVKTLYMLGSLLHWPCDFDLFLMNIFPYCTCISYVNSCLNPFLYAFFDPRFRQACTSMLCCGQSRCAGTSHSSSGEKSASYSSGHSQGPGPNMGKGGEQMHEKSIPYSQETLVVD
UniProt P49407, residues 2-418: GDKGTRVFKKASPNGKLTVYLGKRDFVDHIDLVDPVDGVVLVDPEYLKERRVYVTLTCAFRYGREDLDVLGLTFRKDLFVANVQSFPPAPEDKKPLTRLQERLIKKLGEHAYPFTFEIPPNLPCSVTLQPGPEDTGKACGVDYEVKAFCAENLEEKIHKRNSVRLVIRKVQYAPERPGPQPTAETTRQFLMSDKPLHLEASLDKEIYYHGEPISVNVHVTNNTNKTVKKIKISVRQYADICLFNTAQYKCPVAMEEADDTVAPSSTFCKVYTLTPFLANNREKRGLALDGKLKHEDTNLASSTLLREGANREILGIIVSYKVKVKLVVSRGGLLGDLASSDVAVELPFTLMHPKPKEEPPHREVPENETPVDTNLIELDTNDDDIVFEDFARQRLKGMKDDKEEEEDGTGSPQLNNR

Target: APJ-LgBit (human) (UniProt P35414)
Test: split reporter; NanoBiT in live HEK293T cells transiently co-transfected with LgBit and SmBit fusions; 48 h after transfection, serum-free DMEM 3.5 h, furimazine substrate; stimulated with 1 μM apelin or ELA or PBS (series 0.1 nM to 10 μM); luminescence followed up to 60 min

Substance: SmBit-ARRB1 (from UniProt P49407 2-418)
- binding: binds
